PubChem BioAssay AID743121, NCATS | 2013

Aim: 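Knock-downs that sensitise breast cancer cells to camptothecin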 (primary screen)
Cells: MDA-MB-231 cells, a human breast cancer line
Knock-down reagent: single siRNA against human genes, 20 nM siRNA (0.8 pmol per well)
Time to read-out: 120 h (drug added 48 h after transfection, read 72 h later)
Conditions: camptothecin 20 nM (about EC30) for 72 h; vehicle 0.1% DMSO in parallel plates
Detection: 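CellTiter-Glo ATP signal, scaled to control siRNA as percent viability; sensitisation given as log2 of untreated divided by camptothecin-treated viability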
Scale: log2 vehicle/camptothecin viability: higher = stronger sensitisation to camptothecin; viability with camptothecin: higher = more viable cells
Rule for the call: 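Each gene scored by redundant siRNA activity (RSA) over its individual siRNA ratios; a gene is called active at p < 0.001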
In all, the deposit lists about 26,000 reagents; this is an unselected part. 167 of all reagents (0.63%) count as active. 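Calls are per gene from RSA p-values that are not deposited; an individual active-marked siRNA can sensitise only weakly.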 Reagents against one gene are numbered here. Not all columns of the deposit are shown.

| target | reagent | log2 vehicle/camptothecin viability | viability with camptothecin (% of control) | outcome |
| --- | --- | --- | --- | --- |
| CDC42BPG (CDC42 binding protein kinase gamma) | 1 | -0.245 | 106 | inactive |
| CDC42BPG (CDC42 binding protein kinase gamma) | 2 | 0.0835 | 68 | inactive |
| CDC42BPG (CDC42 binding protein kinase gamma) | 3 | -0.503 | 92.8 | inactive |
| CDC42BPG (CDC42 binding protein kinase gamma) | 4 | -0.352 | 69.4 | inactive |
| GPR84 (G protein-coupled receptor 84) | 1 | -0.247 | 75.5 | inactive |
| GPR84 (G protein-coupled receptor 84) | 2 | -0.109 | 102 | inactive |
| GPR84 (G protein-coupled receptor 84) | 3 | -0.256 | 68 | inactive |
| GPR84 (G protein-coupled receptor 84) | 4 | 0.0146 | 68.3 | inactive |
| TBX5 (T-box transcription factor 5) | 1 | 0.369 | 12.1 | inactive |
| TBX5 (T-box transcription factor 5) | 2 | 0.184 | 95.3 | inactive |
| TBX5 (T-box transcription factor 5) | 3 | 0.0341 | 82.2 | inactive |
| TBX5 (T-box transcription factor 5) | 4 | -0.0615 | 55.7 | inactive |
| TMX4 (thioredoxin related transmembrane protein 4) | 1 | -0.024 | 94.2 | inactive |
| TMX4 (thioredoxin related transmembrane protein 4) | 2 | 0.296 | 59 | inactive |
| TMX4 (thioredoxin related transmembrane protein 4) | 3 | -0.44 | 64.9 | inactive |
| TMX4 (thioredoxin related transmembrane protein 4) | 4 | 0.334 | 77.7 | inactive |
| TNFSF13 (TNF superfamily member 13) | 1 | 0.0481 | 87.7 | inactive |
| TNFSF13 (TNF superfamily member 13) | 2 | -0.546 | 33.8 | inactive |
| TNFSF13 (TNF superfamily member 13) | 3 | 0.124 | 28.6 | inactive |
| TNFSF13 (TNF superfamily member 13) | 4 | -0.0843 | 93.8 | inactive |

The list goes on, starting with the last 4 of the part before.
| target | reagent | log2 vehicle/camptothecin viability | viability with camptothecin (% of control) | outcome |
| --- | --- | --- | --- | --- |
| TNFSF13 (TNF superfamily member 13) | 1 | 0.0481 | 87.7 | inactive |
| TNFSF13 (TNF superfamily member 13) | 2 | -0.546 | 33.8 | inactive |
| TNFSF13 (TNF superfamily member 13) | 3 | 0.124 | 28.6 | inactive |
| TNFSF13 (TNF superfamily member 13) | 4 | -0.0843 | 93.8 | inactive |
| LRSAM1 (leucine rich repeat and sterile alpha motif containing 1) | 1 | -0.0719 | 44.5 | inactive |
| LRSAM1 (leucine rich repeat and sterile alpha motif containing 1) | 2 | 0.621 | 50 | inactive |
| LRSAM1 (leucine rich repeat and sterile alpha motif containing 1) | 3 | -0.158 | 93.1 | inactive |
| PLCG1 (phospholipase C gamma 1) | 1 | 0.279 | 65.7 | inactive |
| PLCG1 (phospholipase C gamma 1) | 2 | -0.0903 | 61.8 | inactive |
| PLCG1 (phospholipase C gamma 1) | 3 | 0.0431 | 69.5 | inactive |
| PLCG1 (phospholipase C gamma 1) | 4 | -0.00187 | 97.8 | inactive |
| FASN (fatty acid synthase) | 1 | 0.393 | 21.3 | inactive |
| FASN (fatty acid synthase) | 2 | -0.153 | 59.7 | inactive |
| FASN (fatty acid synthase) | 3 | 0.311 | 18.6 | inactive |
| FASN (fatty acid synthase) | 4 | 0.159 | 66.8 | inactive |
| PRB4 (proline rich protein BstNI subfamily 4) | 1 | -0.684 | 94.2 | inactive |
| PRB4 (proline rich protein BstNI subfamily 4) | 2 | -0.0338 | 72.2 | inactive |
| PRB4 (proline rich protein BstNI subfamily 4) | 3 | -0.276 | 95.7 | inactive |
| SP140 (SP140 nuclear body protein) | 1 | -0.251 | 63.4 | inactive |
| SP140 (SP140 nuclear body protein) | 2 | -0.296 | 60.1 | inactive |
| SP140 (SP140 nuclear body protein) | 3 | -0.575 | 57.5 | inactive |
| SP140 (SP140 nuclear body protein) | 4 | -0.107 | 110 | inactive |
| SHC1 (SHC adaptor protein 1) | 1 | -0.453 | 85.8 | inactive |
| SHC1 (SHC adaptor protein 1) | 2 | 0.328 | 81.6 | inactive |
| SHC1 (SHC adaptor protein 1) | 3 | 0.00816 | 106 | inactive |
| SHC1 (SHC adaptor protein 1) | 4 | -0.214 | 106 | inactive |
| LATS1 (large tumor suppressor kinase 1) | 1 | -0.263 | 125 | inactive |
| LATS1 (large tumor suppressor kinase 1) | 2 | -0.291 | 125 | inactive |
| LATS1 (large tumor suppressor kinase 1) | 3 | 1.2 | 35 | inactive |
| LATS1 (large tumor suppressor kinase 1) | 4 | -0.684 | 110 | inactive |
